Literature values as cited in patent publication US10111955B2, “PEG derivative” (priority 2014, dated 2018).

Details: general statement on the known drug; cited from earlier work

CC(=O)O[C@H]1C(=O)[C@@]2(C)[C@H]([C@H](OC(=O)c3ccccc3)[C@]3(O)C[C@H](OC(=O)[C@H](O)[C@@H](NC(=O)c4ccccc4)c4ccccc4)C(C)=C1C3(C)C)[C@]1(OC(C)=O)CO[C@@H]1C[C@@H]2O [Paclitaxel, paclitaxel]
water-solubility: sparingly soluble in water
